Measured values as given in publication PMC5132261.

Amino acid sequences for entries named in this document (tags omitted).
UniProt O88778: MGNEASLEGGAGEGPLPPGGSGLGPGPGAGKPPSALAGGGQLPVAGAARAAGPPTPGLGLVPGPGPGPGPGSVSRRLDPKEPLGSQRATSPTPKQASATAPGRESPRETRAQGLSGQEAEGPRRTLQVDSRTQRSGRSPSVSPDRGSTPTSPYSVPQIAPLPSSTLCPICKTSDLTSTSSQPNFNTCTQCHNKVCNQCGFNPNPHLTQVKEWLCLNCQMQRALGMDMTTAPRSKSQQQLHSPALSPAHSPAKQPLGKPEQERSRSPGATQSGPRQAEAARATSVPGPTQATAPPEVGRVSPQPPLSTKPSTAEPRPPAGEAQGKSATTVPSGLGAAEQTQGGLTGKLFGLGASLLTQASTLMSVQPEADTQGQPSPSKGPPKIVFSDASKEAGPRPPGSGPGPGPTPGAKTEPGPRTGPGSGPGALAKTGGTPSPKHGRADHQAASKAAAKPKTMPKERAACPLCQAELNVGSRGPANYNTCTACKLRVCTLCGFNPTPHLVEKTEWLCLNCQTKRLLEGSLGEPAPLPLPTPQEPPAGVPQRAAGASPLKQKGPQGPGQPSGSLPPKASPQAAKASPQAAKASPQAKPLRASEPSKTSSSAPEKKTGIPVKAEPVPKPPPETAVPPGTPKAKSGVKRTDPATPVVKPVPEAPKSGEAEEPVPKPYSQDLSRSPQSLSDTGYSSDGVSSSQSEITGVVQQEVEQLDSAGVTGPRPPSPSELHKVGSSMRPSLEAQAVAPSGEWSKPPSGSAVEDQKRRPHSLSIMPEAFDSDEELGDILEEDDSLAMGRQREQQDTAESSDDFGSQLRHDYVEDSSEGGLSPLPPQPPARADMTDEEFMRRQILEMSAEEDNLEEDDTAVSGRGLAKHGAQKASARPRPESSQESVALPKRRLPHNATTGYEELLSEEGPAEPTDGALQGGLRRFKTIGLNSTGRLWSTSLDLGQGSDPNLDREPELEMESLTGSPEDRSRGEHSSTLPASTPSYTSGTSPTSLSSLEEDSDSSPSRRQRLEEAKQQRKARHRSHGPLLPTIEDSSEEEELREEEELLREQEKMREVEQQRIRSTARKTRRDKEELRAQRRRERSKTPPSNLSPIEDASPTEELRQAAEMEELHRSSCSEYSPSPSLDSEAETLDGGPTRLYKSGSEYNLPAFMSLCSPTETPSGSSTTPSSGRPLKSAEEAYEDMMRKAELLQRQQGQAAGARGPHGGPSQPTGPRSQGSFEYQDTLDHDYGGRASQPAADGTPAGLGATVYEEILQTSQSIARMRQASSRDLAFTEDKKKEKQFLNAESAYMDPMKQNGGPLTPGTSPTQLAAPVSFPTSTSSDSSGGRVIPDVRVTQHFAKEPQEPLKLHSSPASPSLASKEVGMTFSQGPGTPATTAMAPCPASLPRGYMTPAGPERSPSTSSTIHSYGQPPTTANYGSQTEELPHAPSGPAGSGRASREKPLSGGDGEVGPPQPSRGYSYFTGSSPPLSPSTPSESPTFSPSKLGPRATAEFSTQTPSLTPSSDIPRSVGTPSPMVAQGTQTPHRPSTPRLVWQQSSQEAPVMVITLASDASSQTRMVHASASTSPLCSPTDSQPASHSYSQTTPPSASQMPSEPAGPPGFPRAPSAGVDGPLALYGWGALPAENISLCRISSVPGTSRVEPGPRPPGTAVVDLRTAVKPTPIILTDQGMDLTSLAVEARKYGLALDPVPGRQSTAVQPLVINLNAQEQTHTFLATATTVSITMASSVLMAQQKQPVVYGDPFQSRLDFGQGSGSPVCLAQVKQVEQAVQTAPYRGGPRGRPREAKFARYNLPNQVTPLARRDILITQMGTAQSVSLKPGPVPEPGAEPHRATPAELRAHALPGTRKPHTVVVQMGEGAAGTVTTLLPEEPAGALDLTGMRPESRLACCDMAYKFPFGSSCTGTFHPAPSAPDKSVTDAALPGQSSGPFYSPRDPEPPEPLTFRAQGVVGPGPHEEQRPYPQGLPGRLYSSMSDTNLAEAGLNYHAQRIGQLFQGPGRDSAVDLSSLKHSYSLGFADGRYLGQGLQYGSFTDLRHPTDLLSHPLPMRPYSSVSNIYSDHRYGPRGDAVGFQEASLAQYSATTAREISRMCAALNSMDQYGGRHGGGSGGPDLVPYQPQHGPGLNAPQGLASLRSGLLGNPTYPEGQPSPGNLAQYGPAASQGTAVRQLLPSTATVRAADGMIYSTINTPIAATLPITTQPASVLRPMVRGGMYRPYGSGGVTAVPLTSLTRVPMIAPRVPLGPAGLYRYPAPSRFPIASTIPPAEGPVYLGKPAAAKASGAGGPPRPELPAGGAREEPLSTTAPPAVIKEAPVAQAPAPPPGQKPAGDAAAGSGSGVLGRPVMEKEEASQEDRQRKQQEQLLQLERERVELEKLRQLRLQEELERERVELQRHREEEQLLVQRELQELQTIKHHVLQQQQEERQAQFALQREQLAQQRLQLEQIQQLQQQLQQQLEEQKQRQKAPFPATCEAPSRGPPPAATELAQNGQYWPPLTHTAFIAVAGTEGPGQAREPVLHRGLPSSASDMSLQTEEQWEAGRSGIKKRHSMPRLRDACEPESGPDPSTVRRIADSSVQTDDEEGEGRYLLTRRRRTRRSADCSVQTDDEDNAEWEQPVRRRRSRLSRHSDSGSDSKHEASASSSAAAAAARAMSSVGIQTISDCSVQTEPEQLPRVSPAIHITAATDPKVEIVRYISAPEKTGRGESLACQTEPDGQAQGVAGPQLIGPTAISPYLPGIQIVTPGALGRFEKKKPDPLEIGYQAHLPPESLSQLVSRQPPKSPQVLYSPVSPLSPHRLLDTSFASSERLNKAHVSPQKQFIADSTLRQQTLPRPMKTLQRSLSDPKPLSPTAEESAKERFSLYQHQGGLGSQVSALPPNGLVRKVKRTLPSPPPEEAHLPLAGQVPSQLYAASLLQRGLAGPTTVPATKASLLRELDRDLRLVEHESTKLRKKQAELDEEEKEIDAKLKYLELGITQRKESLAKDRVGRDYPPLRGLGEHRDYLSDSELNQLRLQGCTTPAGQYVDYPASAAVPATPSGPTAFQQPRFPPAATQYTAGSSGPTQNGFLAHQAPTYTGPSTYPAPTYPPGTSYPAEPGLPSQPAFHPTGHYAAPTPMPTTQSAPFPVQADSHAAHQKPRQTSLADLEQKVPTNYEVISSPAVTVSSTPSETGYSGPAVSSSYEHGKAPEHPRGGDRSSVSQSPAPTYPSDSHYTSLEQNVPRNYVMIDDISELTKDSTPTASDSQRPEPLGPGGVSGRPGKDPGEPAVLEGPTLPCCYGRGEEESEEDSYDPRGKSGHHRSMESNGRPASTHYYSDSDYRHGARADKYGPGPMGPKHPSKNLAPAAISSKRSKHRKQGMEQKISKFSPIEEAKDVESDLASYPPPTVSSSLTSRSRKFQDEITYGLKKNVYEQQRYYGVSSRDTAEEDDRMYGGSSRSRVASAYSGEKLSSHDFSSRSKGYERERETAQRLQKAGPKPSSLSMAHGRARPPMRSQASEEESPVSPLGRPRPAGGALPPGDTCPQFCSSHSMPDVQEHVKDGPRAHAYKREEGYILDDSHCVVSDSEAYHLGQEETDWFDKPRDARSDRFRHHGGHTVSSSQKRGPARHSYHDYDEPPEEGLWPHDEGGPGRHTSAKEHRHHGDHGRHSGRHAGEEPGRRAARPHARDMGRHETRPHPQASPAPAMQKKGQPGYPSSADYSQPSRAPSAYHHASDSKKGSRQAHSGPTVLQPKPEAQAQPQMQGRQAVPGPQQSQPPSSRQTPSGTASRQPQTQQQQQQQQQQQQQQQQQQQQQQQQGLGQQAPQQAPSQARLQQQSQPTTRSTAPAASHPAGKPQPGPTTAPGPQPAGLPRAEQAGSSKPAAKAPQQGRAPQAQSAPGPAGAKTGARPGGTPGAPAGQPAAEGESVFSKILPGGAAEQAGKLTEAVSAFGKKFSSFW

Biological target: Piccolo (rat (endogenous in brain)) (UniProt Q9JKS6)
Assay: affinity purification with mass spectrometry; eluates of the anti-Piccolo IP and of the control IgG IP (two IP experiments) from solubilised light membrane fraction of immature rat brain, analysed by MudPIT; positives: present in the anti-Piccolo IP, absent from IgG

In the case of Bassoon (from UniProt O88778 1-3938), the binding is reported as “binds”.

Results are given in words; binding and its absence hold for the method and conditions named. In cells and extracts the contact can be indirect. Here binding means that the protein was enriched with, or labelled near, the bait; the list need not be complete.
